Source: US20070213283A1, “Macrolides substituted at the 4"-position” (priority 2003, published 2007)
Some of these results come from one statement about several compounds together.

How the values were obtained:
Experiment in all cases: MIC, standard broth dilution method in microtitre
S. pyogenes 3565 = type: cell-based, Streptococcus pyogenes
Method: (§1) Using a standard broth dilution method in microtitre, compounds were tested for antibacterial activity. The compounds in the above examples gave minimum inhibitory concentrations (MICs) less than 1 microgram per millilitre against erythromycin-sensitive and erythromycin-resistant strains of Streptococcus pneumoniae and Streptococcus pyogenes.
(§2) In addition, the MIC (μg/mL) of test compounds against various organisms was determined including:
(§3) S. aureus Smith ATCC 13709, S. pneumoniae SP030, S. pyogenes 3565, E. faecalis ATCC 29212, H. influenzae ATCC 49247, M. catarrhalis ATCC 23246.

[1] = test system: S. aureus Smith ATCC 13709; type: cell-based, Staphylococcus aureus
Method: as §1, §2, §3

E. faecalis ATCC 29212 = type: cell-based, Enterococcus faecalis
Method: as §1, §2, §3

[2] = test system: M. catarrhalis ATCC 23246; type: cell-based, Moraxella catarrhalis
Method: as §1, §2, §3

S. pneumoniae SP030 = type: cell-based, Streptococcus pneumoniae
Method: as §1, §2, §3

[3] = test system: erythromycin resistant strains of Streptococcus pyogenes; type: cell-based
Method: as §1

[4] = test system: erythromycin resistant strains of Streptococcus pneumoniae; type: cell-based
Method: as §1

H. influenzae ATCC 49247 = type: cell-based, Haemophilus influenzae
Method: as §1, §2, §3

4″-O-{3-[2-(3-Carboxy-1-ethyl-4-oxo-1,4-dihydro-6-quinolinylsulfanyl)ethylamino]propionyl}-6-O-methyl-erythromycin A [Example 6]
MIC (S. pyogenes 3565): ≤ 1 µg/mL
MIC [1]: ≤ 1 µg/mL
MIC (E. faecalis ATCC 29212): ≤ 1 µg/mL
MIC [2]: ≤ 2 µg/mL
MIC (S. pneumoniae SP030): ≤ 1 µg/mL
MIC [3]: ≤ 0.25 µg/mL
MIC [4]: ≤ 0.25 µg/mL
MIC (H. influenzae ATCC 49247): ≤ 2 µg/mL
